Data as given in PubChem BioAssay AID248 (DTP/NCI, 2004).
The list shows only some results of the screen, not a fair sample: it is rich in T/C values a quarter to a half above the control, in often repeated tests (any T/C) and in doses without a T/C. Further doses and runs are listed elsewhere. T/C is the treated group as % of the vehicle group. Some doses have a count of surviving animals in place of a T/C: the source holds a T/C of zero for them, seemingly a mark for toxic or unscored doses. Some survivor counts are full or nearly so, which does not show that the dose was tolerated: survival well below the control is almost never listed, so the zero probably covers shortened survival too. Survivors were counted at the toxicity check, usually on the fifth day, unless a day is given; later deaths do not show. Schedule codes are those of the source, taken here to give the interval after Q, in days (D) or hours (H), and the number of doses after X. For survival time, the PubChem record calls one and a half times the control and up active, and a quarter to a half above the control has no call in these data; cut-offs in other NCI protocols can differ. Some T/C values carry the count of animals alive at the toxicity check (mostly the fifth day); where none is given, no animal had died by that day.

Test system: L1210 leukemia ip in BDF1 mice, survival T/C
Experiment: NCI In Vivo Anticancer Drug Screen. Data for tumor model L1210 Leukemia (intraperitoneal) in B6D2F1 (BDF1) mice
Details: T/C endpoint: mean survival time, higher T/C = longer survival
[1] = dose: 200.0 mg/kg/injection, schedule: Q01DX009 (ip), vehicle: saline with Tween-80
[2] = dose: 400.0 mg/kg/injection, schedule: Q04DX002 (ip), vehicle: saline with Tween-80
[3] = dose: 200.0 mg/kg/injection, schedule: Q04DX003 (ip), vehicle: saline with Tween-80
[4] = dose: 200.0 mg/kg/injection, schedule: Q01DX001 (ip), vehicle: saline
[5] = dose: 400.0 mg/kg/injection, schedule: Q01DX001 (ip), vehicle: saline
[6] = dose: 400.0 mg/kg/injection, schedule: Q01DX009 (ip), vehicle: saline
[7] = dose: 100.0 mg/kg/injection, schedule: Q04DX003 (ip), vehicle: Klucel (hydroxypropylcellulose) (HPC)
[8] = dose: 400.0 mg/kg/injection, schedule: Q04DX003 (ip), vehicle: Klucel (hydroxypropylcellulose) (HPC)
[9] = dose: 200.0 mg/kg/injection, schedule: Q01DX009 (ip), vehicle: saline
[10] = dose: 400.0 mg/kg/injection, schedule: Q04DX003 (ip), vehicle: saline with Tween-80
[11] = dose: 400.0 mg/kg/injection, schedule: Q01DX009 (ip), vehicle: Klucel (hydroxypropylcellulose) (HPC)

## C=CC[P+](Cc1ccccc1)(c1ccccc1)c1ccccc1
dose: 25.0 mg/kg/injection, schedule: Q01DX009 (ip), vehicle: saline with Tween-80
  survivor count: 0 of 3
dose: 50.0 mg/kg/injection, schedule: Q01DX009 (ip), vehicle: saline with Tween-80
  survivor count: 0 of 3
dose: 100.0 mg/kg/injection, schedule: Q01DX009 (ip), vehicle: saline with Tween-80
  survivor count: 0 of 3
[1]
  survivor count: 0 of 3

## CCCCCCCCC(CO)(CCCCCCC)C(=O)O (stereo unspecified)
[2]
  survivor count: 0 of 3

## O=C1C(=O)c2ccccc2C(O)=C1CCCCCCCCCC[S+](CCO)CCO
dose: 400.0 mg/kg/injection, schedule: Q01DX001 (ip), vehicle: other
  survivor count: 3 of 6

## CCCCN(C)c1ccc(N=Nc2cc(Cl)ccc2Cl)cc1
[3]
  survivor count: 6 of 6

## O=C(CN1C(=O)C2CCCCC2C1=O)N1CC1 (stereo unspecified)
dose: 400.0 mg/kg/injection, schedule: Q01DX001 (ip), vehicle: carboxymethylcellulose (CMC)
  survivor count: 0 of 6

## Cc1nc(-c2ccc(N=Cc3ccc(N(CCOS(C)(=O)=O)CCOS(C)(=O)=O)cc3C)cc2)c(C)s1
dose: 20.0 mg/kg/injection, schedule: Q01DX009 (ip), vehicle: Klucel (hydroxypropylcellulose) (HPC)
  T/C: 135 % of control [5 of 6 alive]
dose: 40.0 mg/kg/injection, schedule: Q01DX001 (ip), vehicle: Klucel (hydroxypropylcellulose) (HPC)
  T/C: 131 % of control
dose: 80.0 mg/kg/injection, schedule: Q01DX001 (ip), vehicle: Klucel (hydroxypropylcellulose) (HPC)
  survivor count: 6 of 6
dose: 100.0 mg/kg/injection, schedule: Q01DX001 (ip), vehicle: Klucel (hydroxypropylcellulose) (HPC)
  survivor count: 1 of 6
dose: 200.0 mg/kg/injection, schedule: Q01DX001 (ip), vehicle: Klucel (hydroxypropylcellulose) (HPC)
  survivor count: 0 of 6
dose: 400.0 mg/kg/injection, schedule: Q01DX001 (ip), vehicle: Klucel (hydroxypropylcellulose) (HPC)
  survivor count: 0 of 6

## Cc1[nH]nc2c(=S)[nH]c(=O)[nH]c12
dose: 300.0 mg/kg/injection, schedule: Q01DX001 (ip), vehicle: saline
  survivor count: 1 of 6

## N#[N+]c1ccc(Br)cc1-c1nc(N)nc(N)n1
dose: 75.0 mg/kg/injection, schedule: Q01DX009 (ip), vehicle: saline
  survivor count: 5 of 6
dose: 100.0 mg/kg/injection, schedule: Q04DX003 (ip), vehicle: saline
  survivor count: 5 of 6
dose: 115.0 mg/kg/injection, schedule: Q01DX009 (ip), vehicle: saline
  survivor count: 0 of 6
[4]
  survivor count: 0 of 6
[5]
  survivor count: 0 of 6

## S=C(NNC(=S)Nc1ccc(Cl)cc1)NNc1ccccc1
dose: 400.0 mg/kg/injection, schedule: Q04DX003 (ip), vehicle: acetone
  survivor count: 2 of 6

## CCOC(=O)c1c(N)sc2c1CCC2
[6]
  survivor count: 1 of 6

## NC(=S)N/N=C\c1nccc2c(C(=O)O)cccc12
dose: 400.0 mg/kg/injection, schedule: Q04DX002 (ip), vehicle: saline
  survivor count: 3 of 3

## O=[As](O)(O)c1ccc(Cl)cc1C(F)(F)F
dose: 50.0 mg/kg/injection, schedule: Q04DX003 (ip), vehicle: Klucel (hydroxypropylcellulose) (HPC)
  survivor count: 0 of 3
[7]
  survivor count: 2 of 3
[8]
  survivor count: 0 of 6

## CC(C)NCC(O)c1cccc(O)c1 (stereo unspecified)
[5]
  survivor count: 1 of 6

## c1ccc2c(c1)C[N+]1(Cc3ccccc3-2)CC12CCCCC2
dose: 100.0 mg/kg/injection, schedule: Q01DX009 (ip), vehicle: saline
  survivor count: 0 of 6
[9]
  survivor count: 0 of 6
[6]
  survivor count: 0 of 6

## O=c1ccc2nc3ccccc3sc-2c1
[3]
  survivor count: 5 of 6
[10]
  survivor count: 6 of 6

## C1=Nc2ccccc2/C1=C/c1cccs1
dose: 400.0 mg/kg/injection, schedule: Q04DX003 (ip), vehicle: carboxymethylcellulose (CMC)
  survivor count: 6 of 6

## C=C(C)C1C2OC(=O)C1C1(O)CC3OC34C(=O)OC2C14C (stereo unspecified)
dose: 5.0 mg/kg/injection, schedule: Q01DX001 (ip), vehicle: other
  survivor count: 1 of 6
dose: 9.5 mg/kg/injection, schedule: Q01DX001 (ip), vehicle: other
  survivor count: 0 of 6
dose: 19.0 mg/kg/injection, schedule: Q01DX001 (ip), vehicle: other
  survivor count: 0 of 6
dose: 38.0 mg/kg/injection, schedule: Q01DX001 (ip), vehicle: other
  survivor count: 0 of 6
dose: 75.0 mg/kg/injection, schedule: Q01DX001 (ip), vehicle: other
  survivor count: 0 of 6
dose: 150.0 mg/kg/injection, schedule: Q01DX001 (ip), vehicle: other
  survivor count: 0 of 6
dose: 300.0 mg/kg/injection, schedule: Q01DX001 (ip), vehicle: other
  survivor count: 0 of 6

## O=C([O-])C1CCCCC1[I+]c1ccccc1 (stereo unspecified)
dose: 400.0 mg/kg/injection, schedule: Q04DX003 (ip), vehicle: saline
  survivor count: 1 of 6

## C[n+]1c(/C=C\C=C\N2CCCCC2)sc2ccccc21
dose: 5.0 mg/kg/injection, schedule: Q04DX002 (ip), vehicle: saline with Tween-80
  survivor count: 1 of 3
dose: 10.0 mg/kg/injection, schedule: Q04DX002 (ip), vehicle: saline with Tween-80
  survivor count: 0 of 3

## O=[N+]([O-])CC(O)c1ccccc1Cl (stereo unspecified)
[1]
  survivor count: 0 of 6

## O=C(Nc1ccccc1F)c1ccco1
[11]
  survivor count: 3 of 6

## CC1CC(NC(=S)N(C)C)CC(C)(C)C1 (stereo unspecified)
[11]
  survivor count: 0 of 6

## Cc1cc(N(CCOS(C)(=O)=O)CCOS(C)(=O)=O)ccc1C=Nc1ccc(-c2csc(-c3ccc(Br)cc3)n2)cc1
dose: 66.0 mg/kg/injection, schedule: Q01DX009 (ip), vehicle: saline
  T/C: 145 % of control
dose: 66.0 mg/kg/injection, schedule: Q04DX003 (ip), vehicle: Klucel (hydroxypropylcellulose) (HPC)
  T/C: 129 % of control
[7]
  T/C: 136 % of control
dose: 150.0 mg/kg/injection, schedule: Q04DX003 (ip), vehicle: Klucel (hydroxypropylcellulose) (HPC)
  T/C: 134 % of control
[8]
  survivor count: 4 of 6

## CN(C)CCOc1cccc(OCCN(C)C)n1
dose: 100.0 mg/kg/injection, schedule: Q04DX003 (ip), vehicle: saline with Tween-80
  survivor count: 3 of 6
[3]
  survivor count: 0 of 6
[10]
  survivor count: 0 of 6

## CSc1ncnc2c1C[P+](Cc1ccccc1)(c1ccccc1)CC2 (stereo unspecified)
dose: 200.0 mg/kg/injection, schedule: Q04DX002 (ip), vehicle: saline with Tween-80
  survivor count: 0 of 3
[2]
  survivor count: 0 of 3

## CCC(C)C(CCN1CCCC1)(CNC(=O)CN(CC)CC)c1cccc2ccccc12 (stereo unspecified)
[9]
  survivor count: 0 of 6
[6]
  survivor count: 0 of 6

## OCC[N-]CCCN=Cc1ccccc1O.OCC[N-]CCCN=Cc1ccccc1O.[Co+2]
[4]
  survivor count: 0 of 6
[5]
  survivor count: 0 of 6

## NCCSC(c1ccccc1)(c1ccccc1)c1ccccc1
[9]
  survivor count: 0 of 6
dose: 300.0 mg/kg/injection, schedule: Q01DX009 (ip), vehicle: saline
  survivor count: 0 of 6
[6]
  survivor count: 0 of 6

## CS(=O)(=O)OCCC#N
[9]
  survivor count: 3 of 6
dose: 400.0 mg/kg/injection, schedule: Q04DX003 (ip), vehicle: alcohol
  survivor count: 0 of 6

## CCCCCCCCCCCCC1CCCC(C)C1 (stereo unspecified)
[1]
  survivor count: 6 of 6
